This is a selection; strong and weak results do not stand in their true shares. Single values of this set are uncertain.
compound: COC(=O)/C=C/c1ccccc1 [methyl cinnamate]; assay: log2 ratio of iodoacetamide-alkyne labeling of the cysteine site, DMSO over compound (competition); higher = stronger covalent engagement of the cysteine by the compound, active = 1 or more; settings: 500 µM; treatment time 1 h; system: HEK293T cell lysate
How it was run: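 Electrophile (500 µM) or vehicle was added to HEK293T lysate (2 mg/mL) for 1 h at ambient temperature before iodoacetamide alkyne labelling (1 h) and click coupling to sCIP-TMT reagents. After pooling, overnight trypsin digestion at 37 °C, streptavidin enrichment and acid elution, peptides were measured by Orbitrap Eclipse LC-MS/MS with FAIMS and quantified in FragPipe. Each cysteine's log2 competition ratio compares mean control-channel with mean compound-channel reporter intensity, control over compound. Data came from duplicate channels across three replicates, excluding cysteines quantified in only one replicate.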

Sequences of proteins named here, by UniProt entry; tags and fusion partners are left off. A change or cut given only in a name is not applied to a line headed by its entry.
UniProt P34896: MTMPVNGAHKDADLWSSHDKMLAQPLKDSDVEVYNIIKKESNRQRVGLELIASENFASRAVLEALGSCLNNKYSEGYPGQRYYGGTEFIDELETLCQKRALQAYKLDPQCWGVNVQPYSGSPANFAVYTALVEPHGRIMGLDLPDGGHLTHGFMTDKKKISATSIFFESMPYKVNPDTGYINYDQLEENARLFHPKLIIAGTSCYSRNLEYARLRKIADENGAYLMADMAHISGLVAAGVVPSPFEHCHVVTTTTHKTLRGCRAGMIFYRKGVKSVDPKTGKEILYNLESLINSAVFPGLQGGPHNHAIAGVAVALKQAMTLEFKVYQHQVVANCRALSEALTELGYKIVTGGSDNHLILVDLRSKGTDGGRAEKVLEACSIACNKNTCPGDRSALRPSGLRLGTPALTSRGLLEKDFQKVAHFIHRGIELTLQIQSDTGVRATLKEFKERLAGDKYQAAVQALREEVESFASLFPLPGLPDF
UniProt P30626: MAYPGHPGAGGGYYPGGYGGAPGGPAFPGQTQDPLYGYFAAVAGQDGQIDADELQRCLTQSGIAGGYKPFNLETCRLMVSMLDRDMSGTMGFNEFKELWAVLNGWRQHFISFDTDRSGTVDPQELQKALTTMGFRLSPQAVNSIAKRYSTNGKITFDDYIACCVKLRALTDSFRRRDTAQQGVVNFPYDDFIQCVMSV
UniProt P34949: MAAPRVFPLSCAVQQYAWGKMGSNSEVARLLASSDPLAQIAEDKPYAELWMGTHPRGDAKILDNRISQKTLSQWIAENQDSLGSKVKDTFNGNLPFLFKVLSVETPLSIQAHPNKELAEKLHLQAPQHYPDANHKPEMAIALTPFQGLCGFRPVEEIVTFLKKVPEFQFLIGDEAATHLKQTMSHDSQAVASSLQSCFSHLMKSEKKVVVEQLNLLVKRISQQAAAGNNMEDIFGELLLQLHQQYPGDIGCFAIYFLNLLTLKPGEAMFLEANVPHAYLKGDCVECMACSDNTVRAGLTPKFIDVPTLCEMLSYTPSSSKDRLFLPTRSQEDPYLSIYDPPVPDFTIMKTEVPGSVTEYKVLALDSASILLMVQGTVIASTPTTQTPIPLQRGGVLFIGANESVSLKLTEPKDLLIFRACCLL
UniProt P42166: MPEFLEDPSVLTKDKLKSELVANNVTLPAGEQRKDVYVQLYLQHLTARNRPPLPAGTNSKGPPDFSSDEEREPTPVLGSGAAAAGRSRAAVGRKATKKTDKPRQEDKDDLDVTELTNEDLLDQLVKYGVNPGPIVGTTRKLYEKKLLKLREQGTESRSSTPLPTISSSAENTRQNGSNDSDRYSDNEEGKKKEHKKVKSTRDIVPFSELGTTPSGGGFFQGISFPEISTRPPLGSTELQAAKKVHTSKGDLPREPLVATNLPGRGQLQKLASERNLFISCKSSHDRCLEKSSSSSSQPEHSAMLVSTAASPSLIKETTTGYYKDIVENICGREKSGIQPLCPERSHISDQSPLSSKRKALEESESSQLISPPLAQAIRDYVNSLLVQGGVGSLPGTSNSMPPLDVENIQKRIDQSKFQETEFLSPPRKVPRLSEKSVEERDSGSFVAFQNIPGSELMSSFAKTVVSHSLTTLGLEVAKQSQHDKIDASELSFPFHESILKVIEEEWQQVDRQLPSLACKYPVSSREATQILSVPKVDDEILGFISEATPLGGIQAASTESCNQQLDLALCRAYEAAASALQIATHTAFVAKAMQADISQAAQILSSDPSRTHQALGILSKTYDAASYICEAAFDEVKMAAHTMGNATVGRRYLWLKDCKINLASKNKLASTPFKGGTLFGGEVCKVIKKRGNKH
UniProt P35579, whole entry, looked up: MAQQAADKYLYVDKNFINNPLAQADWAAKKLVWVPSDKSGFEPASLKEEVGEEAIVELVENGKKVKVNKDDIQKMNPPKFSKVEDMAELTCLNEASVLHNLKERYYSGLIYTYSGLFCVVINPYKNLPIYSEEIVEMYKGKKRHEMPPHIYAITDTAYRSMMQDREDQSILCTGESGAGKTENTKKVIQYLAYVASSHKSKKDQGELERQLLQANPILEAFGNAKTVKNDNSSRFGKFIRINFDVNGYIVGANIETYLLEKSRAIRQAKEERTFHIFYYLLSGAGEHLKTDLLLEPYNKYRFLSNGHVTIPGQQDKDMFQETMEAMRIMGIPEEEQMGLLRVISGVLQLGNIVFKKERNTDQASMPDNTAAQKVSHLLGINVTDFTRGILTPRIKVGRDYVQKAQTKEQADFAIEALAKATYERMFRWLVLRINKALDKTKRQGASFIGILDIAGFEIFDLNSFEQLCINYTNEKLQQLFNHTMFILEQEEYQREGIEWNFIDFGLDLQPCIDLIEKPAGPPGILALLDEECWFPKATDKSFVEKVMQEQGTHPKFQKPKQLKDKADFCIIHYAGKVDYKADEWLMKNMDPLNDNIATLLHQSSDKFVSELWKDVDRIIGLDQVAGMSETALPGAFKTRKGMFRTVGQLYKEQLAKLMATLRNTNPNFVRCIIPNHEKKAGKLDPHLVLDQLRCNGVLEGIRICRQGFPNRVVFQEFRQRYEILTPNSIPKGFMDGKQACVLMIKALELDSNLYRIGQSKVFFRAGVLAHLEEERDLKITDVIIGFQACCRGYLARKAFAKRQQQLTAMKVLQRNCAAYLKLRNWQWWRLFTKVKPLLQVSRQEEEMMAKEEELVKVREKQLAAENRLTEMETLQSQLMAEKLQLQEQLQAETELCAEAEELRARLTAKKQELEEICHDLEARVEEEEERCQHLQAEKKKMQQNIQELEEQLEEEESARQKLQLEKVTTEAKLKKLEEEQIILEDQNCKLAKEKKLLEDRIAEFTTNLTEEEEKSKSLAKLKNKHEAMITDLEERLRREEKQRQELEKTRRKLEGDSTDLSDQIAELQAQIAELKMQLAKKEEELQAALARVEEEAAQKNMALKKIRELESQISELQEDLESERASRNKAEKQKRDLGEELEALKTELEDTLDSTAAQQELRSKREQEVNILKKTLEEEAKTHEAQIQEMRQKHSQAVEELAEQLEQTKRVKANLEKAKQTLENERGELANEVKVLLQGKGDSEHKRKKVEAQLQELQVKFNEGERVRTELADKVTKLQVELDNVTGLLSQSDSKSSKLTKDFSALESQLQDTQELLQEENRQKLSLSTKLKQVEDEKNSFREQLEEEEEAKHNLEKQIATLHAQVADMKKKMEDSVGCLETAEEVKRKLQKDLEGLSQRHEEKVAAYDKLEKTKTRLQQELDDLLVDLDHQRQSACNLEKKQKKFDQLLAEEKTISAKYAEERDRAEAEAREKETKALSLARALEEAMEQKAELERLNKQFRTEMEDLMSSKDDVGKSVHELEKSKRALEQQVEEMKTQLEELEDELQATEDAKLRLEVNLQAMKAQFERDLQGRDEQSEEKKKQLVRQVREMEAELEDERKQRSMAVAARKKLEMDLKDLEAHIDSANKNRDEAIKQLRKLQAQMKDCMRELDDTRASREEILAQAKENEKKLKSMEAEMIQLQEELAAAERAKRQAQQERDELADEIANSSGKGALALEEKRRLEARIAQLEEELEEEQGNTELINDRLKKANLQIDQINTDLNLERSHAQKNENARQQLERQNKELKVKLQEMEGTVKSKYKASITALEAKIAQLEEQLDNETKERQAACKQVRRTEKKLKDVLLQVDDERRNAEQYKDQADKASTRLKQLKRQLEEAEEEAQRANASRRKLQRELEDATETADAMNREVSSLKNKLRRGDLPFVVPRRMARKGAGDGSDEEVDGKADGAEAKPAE
UniProt P36969, whole entry, looked up: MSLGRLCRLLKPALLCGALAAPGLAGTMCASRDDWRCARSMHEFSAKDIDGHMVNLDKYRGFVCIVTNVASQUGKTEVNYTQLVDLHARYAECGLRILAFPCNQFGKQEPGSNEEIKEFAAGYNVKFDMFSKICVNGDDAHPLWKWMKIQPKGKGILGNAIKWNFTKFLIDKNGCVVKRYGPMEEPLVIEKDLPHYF
UniProt P41252: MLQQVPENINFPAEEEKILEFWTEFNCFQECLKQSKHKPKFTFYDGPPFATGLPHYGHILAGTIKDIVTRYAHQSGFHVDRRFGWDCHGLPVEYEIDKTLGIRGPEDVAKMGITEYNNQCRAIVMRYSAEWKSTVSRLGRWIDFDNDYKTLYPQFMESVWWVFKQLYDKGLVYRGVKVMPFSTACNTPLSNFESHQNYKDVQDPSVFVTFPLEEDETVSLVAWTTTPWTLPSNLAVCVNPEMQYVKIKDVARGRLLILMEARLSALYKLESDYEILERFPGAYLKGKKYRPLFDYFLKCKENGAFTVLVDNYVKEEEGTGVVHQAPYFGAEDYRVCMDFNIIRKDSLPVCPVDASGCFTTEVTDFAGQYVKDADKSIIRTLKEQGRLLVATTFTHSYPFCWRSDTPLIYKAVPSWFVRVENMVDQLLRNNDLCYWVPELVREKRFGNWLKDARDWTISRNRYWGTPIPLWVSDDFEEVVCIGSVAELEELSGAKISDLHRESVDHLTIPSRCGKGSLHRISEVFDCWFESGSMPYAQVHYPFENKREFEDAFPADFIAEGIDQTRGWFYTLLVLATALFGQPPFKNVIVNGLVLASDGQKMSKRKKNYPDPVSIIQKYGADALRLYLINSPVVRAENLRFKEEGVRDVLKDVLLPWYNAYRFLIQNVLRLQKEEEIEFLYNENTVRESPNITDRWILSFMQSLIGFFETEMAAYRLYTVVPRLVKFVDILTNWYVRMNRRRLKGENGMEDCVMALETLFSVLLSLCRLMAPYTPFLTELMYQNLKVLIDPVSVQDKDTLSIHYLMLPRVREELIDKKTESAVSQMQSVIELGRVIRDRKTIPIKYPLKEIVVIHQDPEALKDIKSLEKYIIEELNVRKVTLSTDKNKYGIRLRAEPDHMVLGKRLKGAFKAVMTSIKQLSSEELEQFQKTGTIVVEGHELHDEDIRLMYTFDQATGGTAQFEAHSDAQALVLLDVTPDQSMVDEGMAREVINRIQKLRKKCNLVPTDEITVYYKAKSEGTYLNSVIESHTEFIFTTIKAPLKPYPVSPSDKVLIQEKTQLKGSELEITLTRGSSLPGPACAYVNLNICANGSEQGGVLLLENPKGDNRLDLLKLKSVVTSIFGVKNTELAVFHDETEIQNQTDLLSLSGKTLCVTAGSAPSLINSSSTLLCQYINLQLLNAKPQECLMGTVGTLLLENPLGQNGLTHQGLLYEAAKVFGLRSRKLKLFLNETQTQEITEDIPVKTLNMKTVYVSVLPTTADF
UniProt P30520: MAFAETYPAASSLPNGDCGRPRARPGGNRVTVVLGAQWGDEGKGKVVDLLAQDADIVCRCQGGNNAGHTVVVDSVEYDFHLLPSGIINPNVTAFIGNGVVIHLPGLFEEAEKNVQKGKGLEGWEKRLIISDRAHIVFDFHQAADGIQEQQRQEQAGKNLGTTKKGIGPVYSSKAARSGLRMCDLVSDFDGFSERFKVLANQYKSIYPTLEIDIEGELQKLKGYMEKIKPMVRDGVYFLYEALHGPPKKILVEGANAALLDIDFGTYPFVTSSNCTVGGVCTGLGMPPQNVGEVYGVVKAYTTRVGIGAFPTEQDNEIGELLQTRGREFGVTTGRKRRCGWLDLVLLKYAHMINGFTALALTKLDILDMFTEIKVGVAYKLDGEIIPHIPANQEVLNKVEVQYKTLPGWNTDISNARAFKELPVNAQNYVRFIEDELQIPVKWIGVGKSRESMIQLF
UniProt P34932: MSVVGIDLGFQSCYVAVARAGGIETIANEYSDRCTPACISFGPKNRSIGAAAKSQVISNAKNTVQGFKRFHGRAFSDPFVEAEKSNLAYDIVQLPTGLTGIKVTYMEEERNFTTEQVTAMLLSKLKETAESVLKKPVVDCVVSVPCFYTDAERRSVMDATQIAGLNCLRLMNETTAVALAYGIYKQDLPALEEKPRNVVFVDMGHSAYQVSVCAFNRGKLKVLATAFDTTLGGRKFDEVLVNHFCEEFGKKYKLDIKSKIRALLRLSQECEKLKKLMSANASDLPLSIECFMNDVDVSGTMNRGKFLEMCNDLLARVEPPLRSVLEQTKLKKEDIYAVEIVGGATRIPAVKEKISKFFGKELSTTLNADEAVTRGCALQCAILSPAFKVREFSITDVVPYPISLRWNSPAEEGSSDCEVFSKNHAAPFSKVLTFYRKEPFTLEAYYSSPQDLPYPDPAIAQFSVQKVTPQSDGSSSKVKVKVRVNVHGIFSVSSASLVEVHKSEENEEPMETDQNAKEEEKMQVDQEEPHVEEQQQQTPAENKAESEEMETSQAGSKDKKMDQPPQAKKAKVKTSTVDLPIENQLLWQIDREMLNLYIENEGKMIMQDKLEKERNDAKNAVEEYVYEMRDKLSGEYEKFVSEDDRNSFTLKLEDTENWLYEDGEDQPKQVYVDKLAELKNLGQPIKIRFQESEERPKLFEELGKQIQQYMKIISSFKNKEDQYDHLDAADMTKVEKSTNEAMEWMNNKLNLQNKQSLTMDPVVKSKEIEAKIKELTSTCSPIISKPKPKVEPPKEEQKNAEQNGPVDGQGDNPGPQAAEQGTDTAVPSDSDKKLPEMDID

log2 ratio of iodoacetamide-alkyne labeling, inactive:
ATIC C575 (UniProt P31939) 0.154
DCTD C83 (UniProt P32321) 0.0983
TTK C284 (UniProt P33981) 0.389
ADSL C27 (UniProt P30566) -0.119
NUP214 C728 (UniProt P35658) 0.314
SOAT1 C92 (UniProt P35610) 0.277
MCM5 C397 (UniProt P33992) 0.266
MAT2A C56 (UniProt P31153) 0.542
ATIC C101 (UniProt P31939) 0.0905
RPL22 C25 (UniProt P35268) 0.0333
PSMC2 C389 (UniProt P35998) 0.00853
STAT1 C174 (UniProt P42224) 0.0285
SHMT1 C96 (UniProt P34896) -0.00593
CPOX C127 (UniProt P36551) 0.056
UniProt P35568_C494 -0.0901
AGL C767 (UniProt P35573) -0.0817
SRI C194 (UniProt P30626) -0.0721
ACAA2 C179 (UniProt P42765) 0.296
TTK C395 (UniProt P33981) 0.275
MYH10 C382 (UniProt P35580) 0.0873
MATR3 C230 (UniProt P43243) 0.304
UniProt P36507_C384 0.24
MPI C309 (UniProt P34949) 0.0873
TMPO C330 (UniProt P42166) 0.0479
MYH9 C91 (UniProt P35579) -0.221
GPX4 C93 (UniProt P36969) 0.307
IARS C1001 (UniProt P41252) 0.312
UniProt P30520_C182 -0.0277
HNRNPH1 C122 (UniProt P31943) -0.107
UniProt P41250_C211 0.0579
POLR2B C837 (UniProt P30876) 0.247
LRPPRC C500 (UniProt P42704) 0.15
HNRNPH1 C290 (UniProt P31943) -0.177
ATP6V1A C138 (UniProt P38606) 0.175
HSPA4 C417 (UniProt P34932) 0.281
RFC2 C7 (UniProt P35250) 0.299
CTNNA1 C720 (UniProt P35221) 0.069

For convenience, part of the list above.
log2 ratio of iodoacetamide-alkyne labeling, inactive:
SOAT1 C92 (UniProt P35610) 0.277
MCM5 C397 (UniProt P33992) 0.266

Source: the supplement of paper PMC11006884
